# Measurements: PubChem BioAssay AID651640 (Broad Institute, 2012)
# The campaign covered roughly 350,000 compounds. About 6,000 (1.7%) were called active. The shares of active, inactive and inconclusive entries below differ from those in the screen. No stated cut-off is given here; in the data, active means CPE inhibition above about 20% (passing the limit was not always enough); inconclusive means no clear call, values can overlap the other calls; tested in BHK-21 cells.
# Experiment: protection of cells from dengue 2 killing – plate reader, single concentration, primary screen (AID 651640);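 further: 0% = median of neutral control wells and 100% = median of positive control wells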
# Details: DENV2-infected cells, cytopathic effect rescue, at 9.99 µM, active compounds read high
row,SMILES,CPE inhibition
1,O=C(NCc1ccc(F)cc1F)[C@@H]1CCCN1C(=O)[C@@H]1CCCN1C(=O)c1ccc(Cl)cc1,inconclusive: 43%
2,CCOc1ccc2nc(N3C(=O)C(O)=C(C(=O)c4ccco4)C3c3ccco3)sc2c1 (configuration not stated),inconclusive: 44.6%
3,CCN(CC)CCCNC(=S)N1CCN(c2nc3ccccc3n2CC)CC1,active: 41.1%
4,C[C@H](CO)N1C[C@H](C)[C@@H](CN(C)C(=O)Nc2ccc3c(c2)OCO3)OCc2cnnn2CCCC1=O,inconclusive: 21.1%
5,O=C(N[C@H]1CC[C@@H](CCNS(=O)(=O)c2cccc(Cl)c2)O[C@@H]1CO)c1ccccc1,inconclusive: 63.5%
6,CC(C)NC(=O)N(C)C[C@H]1Oc2ccc(NS(=O)(=O)c3cn(C)cn3)cc2CC(=O)N([C@H](C)CO)C[C@H]1C,inconclusive: 84.7%
7,COC(=O)Cn1c(C(=O)N(C)C)cc2c1C[C@H]1CN(C(=O)c3ccccc3)[C@@](Cc3ccc(F)cc3)(C(=O)OC)[C@@H]21,active: 62.9%
8,Cc1cccc(C)c1OCC(=O)OC/C(O)=C(\C#N)c1nc2ccccc2[nH]1,active: 32.7%
9,Cc1ccc(S(=O)(=O)Nc2ccc3c(c2)C(=O)N([C@@H](C)CO)C[C@H](C)[C@@H](CN(C)S(C)(=O)=O)OCCCC[C@@H](C)O3)cc1,active: 25.7%
10,COc1ccc(-c2cccc(NC(=O)c3cccs3)c2)nn1,inconclusive: 63.2%
11,C[C@@H]1CN([C@@H](C)CO)C(=O)c2cccc(NC(=O)NC3CCCCC3)c2O[C@H]1CN(C)CC1CCCCC1,active: 44.4%
12,CC(C)C[C@H]1COCCS(=O)(=O)N1Cc1cccc(C(F)(F)F)c1,inconclusive: 65.5%
13,C[C@@H]1CCCCO[C@H](CN(C)Cc2ccc3c(c2)OCO3)[C@H](C)CN([C@H](C)CO)C(=O)c2cc(NS(=O)(=O)c3cn(C)cn3)ccc2O1,inactive: 9.66%
14,O=C(CC1=NCCNC(c2ccccc2)C1)c1ccccc1O (configuration not stated),inconclusive: 28.8%
15,CCC(CC)C(=O)Nc1c(C(=O)N2CCN(c3ccccc3)CC2)oc2ccccc12,inactive: -3.14%
16,COc1ccc(CN2C(=O)C(C)Nc3ncnc(N4CCc5ccccc5C4)c32)cc1 (configuration not stated),inconclusive: 23.8%
17,O=C([C@@H]1[C@@H](CO)[C@@H]2Cn3c(cccc3=O)[C@H]1N2Cc1ccccc1)N1CCCCC1,active: 50.4%
18,O=C(c1ccc(F)cc1)N1CC[C@@H]2[C@H]1c1cc(-c3ccccc3F)ccc1N[C@@H]2CO,inconclusive: 26.3%
19,O=C(NC1CC1)C1=C[C@H](c2ccccc2)C[C@H](OCc2ccc(CO)cc2)O1,inconclusive: 64.3%
20,Cc1noc(C)c1NC(=O)N[C@@H]1CC[C@@H](CC(=O)Nc2ccc(-c3ccccc3)cc2)O[C@H]1CO,inconclusive: 25.5%
21,CC(=O)Nc1c(O)c2ccccc2[nH]c1=O,inconclusive: 21.1%
22,CCNc1nc(NCC)nc(N(C)/N=C/c2ccco2)n1,inactive: 0.214%
23,O=C(C[C@H]1CC[C@@H]2[C@H](COC[C@H](O)CN2Cc2ccc(Cl)cc2)O1)NCCc1ccccc1,inactive: 0.941%
24,CN(C)C(=O)c1cccc(-c2ccccc2[C@@H]2[C@@H](CO)N(C(=O)C3CCCC3)[C@H]2C#N)c1,inconclusive: 38.1%

# Gathered by group: the compounds so far with a cyano group
row,SMILES,CPE inhibition
8,Cc1cccc(C)c1OCC(=O)OC/C(O)=C(\C#N)c1nc2ccccc2[nH]1,active: 32.7%
24,CN(C)C(=O)c1cccc(-c2ccccc2[C@@H]2[C@@H](CO)N(C(=O)C3CCCC3)[C@H]2C#N)c1,inconclusive: 38.1%

# (next part)

row,SMILES,CPE inhibition
1,CSc1ccccc1C(=O)OCC(=O)NC1CC1,inconclusive: 21.8%
2,COc1ccc2c3c([nH]c2c1)[C@H](CO)N(Cc1ccccc1)CC31CN(S(=O)(=O)c2ccc(C)cc2)C1,active: 36.2%
3,COc1ccc2c3c([nH]c2c1)[C@@H](CO)N(C(=O)C1CCCC1)CC31CN(Cc2cccc(F)c2)C1,inactive: -7.4%
4,Cc1ccc(S(=O)(=O)Nc2ccncc2)c(C)c1N(C)S(=O)(=O)c1ccc(Cl)cc1,inconclusive: 25.3%
5,Cc1ccc(S(=O)(=O)NCC(=O)OCC(=O)N(Cc2ccccc2)C(C)(C)C)cc1,active: 93.4%
6,CN1[C@@H]2Cn3c(ccc(-c4ccccc4)c3=O)[C@H]1[C@@H](C(=O)NCC1CCCCC1)[C@@H]2CO,inactive: 4.12%
7,CN(C)CC(=O)Nc1ccc2c(c1)[C@H]1C[C@@H](CC(=O)NCc3ccccc3)O[C@H](CO)[C@H]1O2,active: 21.5%
8,COc1ccc(S(=O)(=O)N2CCOC23CCN(C(=O)c2ccccc2OC)CC3)cc1,inconclusive: 51%
9,C[C@@H]1CN([C@@H](C)CO)C(=O)c2cc(NS(C)(=O)=O)ccc2O[C@@H](C)CCCCO[C@@H]1CN(C)C(=O)C1CCCCC1,inactive: 1.9%
10,Nc1nc(-c2ccccc2)c(CCCOc2ccc(NC(=O)CBr)cc2)c(=O)[nH]1,active: 24.4%
11,CC1(Oc2ccc(Cl)cc2)CCN(Cc2ccc(OC(F)(F)F)cc2)C1 (configuration not stated),inactive: 4.46%
12,CN(C)CC(=O)N[C@@H]1CC[C@@H](CCNS(=O)(=O)c2ccccc2)O[C@H]1CO,inactive: -1.26%
13,COc1ccc(OCCCN2CCC(C(O)(c3ccccc3)c3ccccc3)CC2)cc1,inconclusive: 26.5%
14,COc1ccc(CN(C)C[C@@H]2OCCCC[C@H](C)Oc3ccc(NS(=O)(=O)c4ccc(Cl)cc4)cc3C(=O)N([C@@H](C)CO)C[C@H]2C)cc1,active: 31%
15,C[C@@H]1CN([C@H](C)CO)C(=O)Cc2cc(NS(C)(=O)=O)ccc2O[C@H]1CN(C)S(=O)(=O)c1ccc(F)cc1,inactive: 5.5%
16,C=CCSCC1Nc2cc(Cl)c(S(N)(=O)=O)cc2S(=O)(=O)N1 (configuration not stated),inconclusive: 29.5%
17,O=C(Nc1ccccc1)c1ccccc1CSc1ccccc1,active: 43.8%
18,CCOC(=O)N1CCC(N(CCN(C)C)C(=S)Nc2cccc(OC)c2)CC1,inactive: -0.983%
19,Clc1c2c(nc3ccccc13)CCC2,inactive: -4.59%
20,Cc1ccc(S(=O)(=O)N(C)C[C@@H]2OCc3cnnn3CCCC(=O)N([C@@H](C)CO)C[C@@H]2C)cc1,inconclusive: 24.6%
21,COC(=O)C[C@@H]1CC[C@H]2[C@@H](COc3ccc(NC(=O)c4cccc(OC)c4)cc3C(=O)N2C)O1,inconclusive: 66.2%
22,Cc1ccc(S(=O)(=O)N2CC[C@@H]3[C@@H](CO)Nc4ccc(Br)cc4[C@@H]32)cc1,inconclusive: 46.7%
23,COc1cccc(NC(=O)N2CC[C@@H]3[C@H]2c2cc(-c4cccc(OC)c4)ccc2N(C)[C@H]3CO)c1,active: 68.3%
24,CC1CC2=C(C(=O)O1)C(c1ccc(Cl)cc1)Nc1ccccc1N2 (configuration not stated),active: 87.9%

row,SMILES,CPE inhibition
1,CO[C@@H]1CN(C)C(=O)c2cc(NC(=O)Nc3ccccc3)ccc2OC[C@@H](C)N(C(=O)CN(C)C)C[C@H]1C,inactive: -5.91%
2,CC1=C/C(=N\Nc2ccccc2[N+](=O)[O-])CC(C)(C)C1,inactive: -2.73%
3,Cc1ncc([N+](=O)[O-])n1CC(=O)Nc1ccc(Br)cc1,inconclusive: 60.4%
4,COCC(=O)Nc1ccc2c(c1)C(=O)N(C)[C@H]1CC[C@H](CC(=O)NCc3cccc(F)c3)O[C@H]1CO2,inconclusive: 22.6%
5,CN(C)CC#Cc1ccc([C@@H]2[C@@H](CO)N3CCCCN(C(=O)Nc4ccc(F)cc4)C[C@@H]23)cc1,inconclusive: 32.3%
6,Cc1cc2nc(-c3ccco3)c(Cc3cccc(Cl)c3)n2c(C)c1Br,inconclusive: 54.7%
7,FC(F)(F)c1ccccc1/C=N/N1CCN(Cc2ccccc2)CC1,inconclusive: 51.3%
8,COCc1cn(CC[C@@H]2CC[C@@H](NC(=O)c3ccccc3)[C@H](CO)O2)nn1,inactive: -8.26%
9,O=C(O)[C@@H]1CSC2c3ccccc3C(=O)N21 (some centres not stated),inconclusive: 27.2%
10,Cc1cccc(-c2ccc([C@H]3[C@@H](CO)N4CCCCN(Cc5cncnc5)C[C@@H]34)cc2)c1,inconclusive: 28.3%
11,Cc1nc(C)c(-c2csc(Nc3ccc(Cl)cn3)n2)s1,inconclusive: 39%
12,COc1cccc(C2Oc3ccccc3C3CC(c4cccs4)=NN32)c1 (configuration not stated),active: 81.2%
13,CCN(c1ccccc1)S(=O)(=O)c1ccc(Cl)c(NC(=O)CSc2n[nH]c(N)n2)c1,inactive: 0.397%
14,COc1ccc([C@@H]2CC=C(C(=O)O)[C@H](c3ccc(C)cc3)N2S(=O)(=O)c2ccc(C)cc2)cc1OC,inconclusive: 56.8%
15,CCCOc1ccccc1OCC(=O)Nc1ccc(S(=O)(=O)N2CCCCC2)cc1,inconclusive: 28.1%
16,O=C(NCCc1ccccc1C(F)(F)F)C1CCC(=O)N(CCCN2CCCC2=O)C1 (configuration not stated),inconclusive: 20.4%
17,CCCc1nc2c(s1)CCc1onc(-c3ccc(Br)cc3)c1-2,inconclusive: 69.5%
18,O=C(C[C@@H]1CC[C@H](NC(=O)C2CCOCC2)[C@H](CO)O1)Nc1ccc(-c2ccccc2)cc1,inconclusive: 57.7%
19,C[C@H]1CN([C@@H](C)CO)C(=O)Cc2cc(NC(=O)Cc3cn(C)c4ccccc34)ccc2O[C@@H]1CN(C)C(=O)Nc1ccc(C(F)(F)F)cc1,inconclusive: 34.5%
20,C[C@@H]1CCCCO[C@@H](CN(C)Cc2ccc(C(F)(F)F)cc2)[C@H](C)CN([C@@H](C)CO)C(=O)c2cc(NS(=O)(=O)c3cccs3)ccc2O1,inconclusive: 29.6%
21,CCN1C[C@@H](C)[C@H](OC)CN(C)C(=O)c2cc(NC(=O)c3ccno3)ccc2OC[C@H]1C,active: 20%
22,COc1cc(-c2nnc(CSc3nnc(Nc4ccc(C(C)C)cc4)s3)o2)cc(OC)c1OC,inconclusive: 20.2%
23,CCCC(=O)Nc1ccc2c(c1)OC[C@@H](C)N(Cc1ccccc1)C[C@H](C)[C@H](OC)CN(C)C2=O,inconclusive: 24.5%
24,COc1ccc(S(=O)(=O)N(C)C[C@H]2Oc3ccc(N(C)C)cc3CC(=O)N([C@@H](C)CO)C[C@@H]2C)cc1,inconclusive: 21.6%
